Where two headings read alike, the source gives them in different places. No constants are given. Whether binding was seen depends on the method and setting. Binding seen in cells or lysates may run through a third protein. Some results given as binding are weak or reduced against the parent protein; the word gives no strength. For some of these results: Where a sequence is shown, tags or fusion partners need not be part of it.
Columns and labels:
HA-HIF1A [1] = target: HA-HIF1A (UniProt Q16665); assay: co-IP
HA-HIF1A [2] = target: HA-HIF1A (UniProt Q16665); assay: co-IP; remark: listed apart in the source

Sequences of proteins named here, by UniProt entry; tags and fusion partners are left off.
UniProt Q16665, whole entry: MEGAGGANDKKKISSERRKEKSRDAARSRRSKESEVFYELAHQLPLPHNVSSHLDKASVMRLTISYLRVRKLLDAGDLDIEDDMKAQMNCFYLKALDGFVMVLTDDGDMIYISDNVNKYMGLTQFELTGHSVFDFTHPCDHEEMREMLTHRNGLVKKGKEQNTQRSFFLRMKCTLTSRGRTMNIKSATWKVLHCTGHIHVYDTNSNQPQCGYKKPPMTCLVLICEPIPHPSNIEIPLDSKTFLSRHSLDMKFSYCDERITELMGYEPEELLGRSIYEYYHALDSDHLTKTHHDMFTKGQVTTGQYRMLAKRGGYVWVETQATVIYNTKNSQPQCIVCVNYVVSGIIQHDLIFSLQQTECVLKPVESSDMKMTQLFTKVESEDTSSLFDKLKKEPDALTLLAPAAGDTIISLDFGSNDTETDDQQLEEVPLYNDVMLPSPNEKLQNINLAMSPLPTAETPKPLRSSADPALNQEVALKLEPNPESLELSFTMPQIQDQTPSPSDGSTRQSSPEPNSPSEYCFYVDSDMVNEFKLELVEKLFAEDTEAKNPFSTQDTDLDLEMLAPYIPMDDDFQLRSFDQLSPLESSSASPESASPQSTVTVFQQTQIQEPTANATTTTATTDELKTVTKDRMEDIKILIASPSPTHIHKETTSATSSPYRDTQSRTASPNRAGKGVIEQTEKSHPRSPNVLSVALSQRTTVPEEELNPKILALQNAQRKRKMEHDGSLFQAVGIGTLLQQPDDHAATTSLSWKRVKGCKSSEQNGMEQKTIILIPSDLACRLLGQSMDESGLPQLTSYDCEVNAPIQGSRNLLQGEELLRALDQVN
UniProt P62191, whole entry: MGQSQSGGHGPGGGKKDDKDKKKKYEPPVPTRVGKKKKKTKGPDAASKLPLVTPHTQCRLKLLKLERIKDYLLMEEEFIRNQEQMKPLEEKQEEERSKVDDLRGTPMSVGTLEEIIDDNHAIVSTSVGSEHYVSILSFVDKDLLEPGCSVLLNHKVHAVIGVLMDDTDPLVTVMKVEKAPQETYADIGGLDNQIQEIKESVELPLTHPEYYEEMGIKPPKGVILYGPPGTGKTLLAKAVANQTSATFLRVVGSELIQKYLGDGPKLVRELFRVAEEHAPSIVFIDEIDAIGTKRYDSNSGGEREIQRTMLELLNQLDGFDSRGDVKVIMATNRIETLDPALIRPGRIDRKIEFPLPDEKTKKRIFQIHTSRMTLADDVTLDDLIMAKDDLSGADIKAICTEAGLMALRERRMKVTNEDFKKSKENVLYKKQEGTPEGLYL
UniProt Q13200, whole entry: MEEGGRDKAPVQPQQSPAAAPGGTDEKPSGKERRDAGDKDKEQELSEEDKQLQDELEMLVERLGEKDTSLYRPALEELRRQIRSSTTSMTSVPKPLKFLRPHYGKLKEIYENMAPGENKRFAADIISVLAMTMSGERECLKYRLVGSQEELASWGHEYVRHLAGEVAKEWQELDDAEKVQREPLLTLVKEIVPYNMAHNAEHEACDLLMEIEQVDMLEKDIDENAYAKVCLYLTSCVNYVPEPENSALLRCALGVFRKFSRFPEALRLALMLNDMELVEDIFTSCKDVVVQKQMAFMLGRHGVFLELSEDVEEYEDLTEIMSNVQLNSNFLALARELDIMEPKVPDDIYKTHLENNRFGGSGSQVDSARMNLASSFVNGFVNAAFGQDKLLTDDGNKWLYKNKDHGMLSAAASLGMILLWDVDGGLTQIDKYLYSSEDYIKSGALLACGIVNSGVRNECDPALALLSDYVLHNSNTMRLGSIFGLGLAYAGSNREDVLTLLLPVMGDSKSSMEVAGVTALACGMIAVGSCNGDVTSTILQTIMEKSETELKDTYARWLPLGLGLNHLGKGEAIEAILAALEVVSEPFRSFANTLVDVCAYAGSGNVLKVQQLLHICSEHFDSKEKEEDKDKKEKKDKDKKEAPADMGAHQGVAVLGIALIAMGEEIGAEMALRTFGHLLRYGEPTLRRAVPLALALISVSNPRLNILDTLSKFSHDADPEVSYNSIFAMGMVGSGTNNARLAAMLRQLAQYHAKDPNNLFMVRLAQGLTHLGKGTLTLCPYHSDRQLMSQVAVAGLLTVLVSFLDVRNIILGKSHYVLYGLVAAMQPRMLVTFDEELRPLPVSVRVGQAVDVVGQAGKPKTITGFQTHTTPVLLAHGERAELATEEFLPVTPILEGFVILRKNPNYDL

Molecule	binding (HA-HIF1A [1])	binding (HA-HIF1A [2])
PSMC1 (from UniProt P62191 1-440)	binds	
PSMD2 (from UniProt Q13200 1-908)	binds	
Flag-UBFD1 (protein, UniProt O14562 1-309) MAAAGAPDGMEEPGMDTEAETVATEAPARPVNCLEAEAAAGAAAEDSGAARGSLQPAPAQPPGDPAAQASVSNGEDAGGGAGRELVDLKIIWNKTKHDVKFPLDSTGSELKQKIHSITGLPPAMQKVMYKGLVPEDKTLREIKVTSGAKIMVVGSTINDVLAVNTPKDAAQQDAKAEENKKEPLCRQKQHRKVLDKGKPEDVMPSVKGAQERLPTVPLSGMYNKSGGKVRLTFKLEQDQLWIGTKERTEKLPMGSIKNVVSEPIEGHEDYHMMAFQLGPTEASYYWVYWVPTQYVDAIKDTVLGKWQYF		binds
UBFD1 (endogenous) (protein, UniProt O14562 1-309) MAAAGAPDGMEEPGMDTEAETVATEAPARPVNCLEAEAAAGAAAEDSGAARGSLQPAPAQPPGDPAAQASVSNGEDAGGGAGRELVDLKIIWNKTKHDVKFPLDSTGSELKQKIHSITGLPPAMQKVMYKGLVPEDKTLREIKVTSGAKIMVVGSTINDVLAVNTPKDAAQQDAKAEENKKEPLCRQKQHRKVLDKGKPEDVMPSVKGAQERLPTVPLSGMYNKSGGKVRLTFKLEQDQLWIGTKERTEKLPMGSIKNVVSEPIEGHEDYHMMAFQLGPTEASYYWVYWVPTQYVDAIKDTVLGKWQYF		binds

Source: doi:10.1101/2025.06.18.660436
